From patent US20250049852A1

What was measured:
[1] = molecular target: monkey-derived GPRC5D overexpressed on CHOS cells (CHOS-macaqueGPRC5D) (macaque (monkey-derived)); experiment: FACS on CHOS-macaqueGPRC5D cells
[2] = molecular target: monkey-derived GPRC5D overexpressed on CHOS cells (CHOS-macaqueGPRC5D) (macaque (monkey-derived)); experiment: FACS titration on CHOS-macaque-GPRC5D cells (upper graph)

Binder	binding [1]	binding [2]
Clone 41, antibody in the IgG form (protein level) (antibody, V domains shown) VH: EVQLLESGGGLVQPGGSLRLSCAASGFSFSGYIMGWVRQAPGKGLEWVSSTSSSGTETYYADSVKGRFTISRDNSKNTLYLQMNSLRAEDTAVYYCARYYSKYGRSYHVDSWGQGTLVTVSS	binds	binds
Clone 18, antibody in the IgG form (protein level) (antibody, V domains shown) VH: QVQLQQWGAGLLKPSETLSLTCAVYGGSFSGYYWSWIRQPPGKGLEWIGEINHSGSTNYNPSLKSRVTISVDTSKNQFSLKLSSVTAADTAVYYCARARRYGGRTRFDPWGQGTLVTVSS	binds	binds
Clone 39, antibody in the IgG form (protein level) (antibody, V domains shown) VH: EVQLLESGGGLVQPGGSLRLSCAASGFIFSSYGMGWVRQAPGKGLEWVSSISSSGDYTYYADSVKGRFTISRDNSKNTLYLQMNSLRAEDTAVYYCARMSFRRYDHWGQGTLVTVSS	binds	binds

Results are given in words; binding and its absence hold for the method and conditions named. Binding calls can cover weak binding; strength is not graded here.
